Test results: patent publication US20030003461
Construct, isoform or probe ends are uncertain for at least one entry. A negative result means that nothing was seen under these conditions.

Chains of the proteins cited; added tags and fusions are not shown. Residues count along the entry.
UniProt P01137, 279-390: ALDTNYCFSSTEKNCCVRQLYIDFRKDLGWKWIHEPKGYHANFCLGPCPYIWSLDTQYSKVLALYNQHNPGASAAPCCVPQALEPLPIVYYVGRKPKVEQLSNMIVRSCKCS

Target: TGFβ1 (Homo sapiens) (UniProt P01137)
Assay: filter binding
Conditions: 2'-F pyrimidines, purified recombinant protein, protein details: recombinant human, R&D Systems; for binding result: NB
[1] = 3' fixed sequence removed, plateau 20%
[2] = 3' fixed sequence removed, plateau 35%
[3] = fixed sequences removed, plateau 30%
[4] = fixed sequences removed, plateau 5%
[5] = fixed sequences removed, plateau 10%
[6] = 3' fixed sequence removed, plateau 25%
[7] = 3' fixed sequence removed, plateau 22%
[8] = 3' fixed sequence removed, plateau 30%

GGGAGAGGGAUCUGGAAUUUUUGGUUUAGCCGUACGCCAGACGACUCGCCCGA [30NtruNc 4]
Kd [1]: 88 pM

GGGAGAUUUUUGGUAAAGCCAGACGACUCGCCCGA [30NtruNc 18]
binding result (3' fixed sequence removed): no binding

GGGAGCGGGAAUUUUUGGUAAAGCCGUAUGCCUCGCCACAGACGACUCGCCCGA [30NtruNc 19]
Kd [2]: 560 pM

GGGAGGACGAUGCGGAAGACCGUUCCGAGUGGUACAAGUAAACCCCUGUGUUCCGCAGACGACUCGCCCGA [hyb ligand 31]
Kd (fixed sequences removed, plateau 60%): 2000 pM

GGGAGGACGAUGCGGAAGGCAAGAAGCUUUAUGUGUCGCGUAACACAACUGUCCGCAGACGACUCGCCCGA [hyb ligand 56]
Kd [3]: 4000 pM

GGGAGGACGAUGCGGAGUGAAUUGCAUCCUUCGAUUACCUACUCUUUUGUGCCCCAGACGACUCGCCCGA [hyb ligand 11]
binding result (fixed sequences removed): no binding

GGGAGGACGAUGCGGAGUUUCAGGAUAUGUUGUGUGGUCGUUCUUUUUCCUCCCCAGACGACUCGCCCGA [hyb ligand 66]
binding result (fixed sequences removed): no binding

GGGAGGACGAUGCGGAGUUUUGGGAUCGCCACAGAUCUUACUGUGAGCUACUGUGCAGACGACUCGCCCGA [hyb ligand 40]
Kd [4]: 3000 pM

GGGAGGACGAUGCGGAUCACUAGGCUCAUUUGUGAGCCGUUAUUCCUUGACUCCAGACGACUCGCCCGA [hyb ligand 67]
Kd (fixed sequences removed, plateau 8%): 100 pM

GGGAGGACGAUGCGGAUCUGAAUUUAUUCGUCUACAGUUACAGCUGGGCCUUCCGCAGACGACUCGCCCGA [hyb ligand 1,12]
Kd [5]: 1000 pM

GGGAGGACGAUGCGGAUCUGAAUUUAUUCGUCUACAGUUACGCUGGGCCUUCCGCAGACGACUCGCCCGA [hyb ligand 51]
Kd [5]: 300 pM

GGGAGGACGAUGCGGAUCUGAAUUUAUUCGUCUACAGUUACGGCUGGGCCUUCCGCAGACGACUCGCCCGA [hyb ligand 41]
Kd [5]: 600 pM

GGGAGGACGAUGCGGAUCUGGGUGACCUCUGUGUACGUUUAUUUUUACCGACCCCAGACGACUCGCCCGA [hyb ligand 32]
binding result (fixed sequences removed): no binding

GGGAGGACGAUGCGGAUGCCUUUUGCCUUCAGGGUGUGAUUCCUUGAUCUGUCCGCAGACGACUCGCCCGA [hyb ligand 14,43a,71]
Kd [4]: 600 pM

GGGAGGACGAUGCGGCAGCUCACUUAUAUUUCCGUCCAAUUCCUUCUUUACUGCCCAGACGACUCGCCCGA [hyb ligand 34]
binding result (fixed sequences removed): no binding

GGGAGGACGAUGCGGGACGUAGCGGGAUGCUUUAACUUUGAUCGUCCAUCAUGUGCAGACGACUCGCCCGA [hyb ligand 50]
binding result (fixed sequences removed): no binding

GGGAGGACGAUGCGGGAUGUAGCGGGAUGCUUUAACUUUGAUCGUCCACCAUGUGCAGACGACUCGCCCGA [hyb ligand 53]
binding result (fixed sequences removed): no binding

GGGAGGACGAUGCGGGGUGCCUGUAGUCUUUGCAUCUUAUAAAUGCAAUCUGCCCCAGACGACUCGCCCGA [hyb ligand 2,7,44]
Kd (fixed sequences removed by RNaseH, plateau 10%): 4000 pM

GGGAGGACGAUGCGGGGUGCCUUUAGUCUUUGCAUCUUAUAAAUGCAAUCUGCCCCAGACGACUCGCCCGA [hyb ligand 18]
Kd [4]: 200 pM

GGGAGGACGAUGCGGGUGCCUUUUGCCUAGGUUGUGAUUUGUAACCUUCUGCCCAGACGACUCGCCCGA [hyb ligand 70]
Kd (fixed sequences removed, plateau 25%): 200 pM

GGGAGGACGAUGCGGUAGUGACGAAUUUUUGCUGGAUCUGGUUUUGAACCGUCCCCAGACGACUCGCCCGA [hyb ligand 20]
binding result (fixed sequences removed): no binding

GGGAGGACGAUGCGGUAGUGAUGAACUUUUGCUGGAUCUGGUUUUGAGCCGUCCCCAGACGACUCGCCCGA [hyb ligand 3]
binding result (fixed sequences removed): no binding

GGGAGGACGAUGCGGUAGUGAUGAACUUUUGCUGGAUUGGUUUUGAACCGUCCCCAGACGACUCGCCCGA [hyb ligand 16]
binding result (fixed sequences removed): no binding

GGGAGGACGAUGCGGUAGUGAUGAAUUUUUGCUGGAUCUGGUUUUGAACCGUCCCCAGACGACUCGCCCGA [hyb ligand 62]
binding result (fixed sequences removed): no binding

GGGAGGACGAUGCGGUCUUUCGAACUGGGAAUUUUUGGUGUAGCCGUAUGCCCAGACGACUCGCCCGA [hyb ligand 59]
Kd (fixed sequences removed, plateau 40%): 500 pM

GGGAGGACGAUGCGGUGCCUUAGCAUGAAUAUACUGAUGUAUAUUCUCUGCCCCAGACGACUCGCCCGA [hyb ligand 39]
binding result (fixed sequences removed): no binding

GGGAGGACGAUGCGGUGCCUUUAGUCUGAAUCUUACCAUGAUUCUCUGCCGCAGACGACUCGCCCGA [hyb ligand 29]
Kd [5]: 800 pM

GGGAGGACGAUGCGGUGUCUUUAGCCUACAGUUGACUGUUCAAUUGUUCUGCCGCAGACGACUCGCCCGA [hyb ligand 52]
Kd [3]: 1000 pM

GGGAGGACGAUGCGGUGUUUGUGCUACGACCUACAUUCGUUGGAAUGUUCUGCCGCAGACGACUCGCCCGA [hyb ligand 23]
Kd [5]: 400 pM

GGGAGGACGAUGCGGUUAGGUCGGGCUCAACACCGCUAAAAAAUUCUUCGUUCCCCCAGACGACUCGCCCGA [hyb ligand 49]
binding result (fixed sequences removed): no binding

GGGAGGACGAUGCGGUUAGUUCGGGCUCAACACCGCUAAGAUUCUUCGUUCCCCCAGACGACUCGCCCGA [hyb ligand 22,28]
binding result (fixed sequences removed): no binding

GGGAGGACGAUGCGGUUAGUUCGGGCUCAACACCGCUAAUAUUCUUCGUUCCCCCAGACGACUCGCCCGA [hyb ligand 33]
binding result (fixed sequences removed): no binding

GGGAGGGAAUUUUUGAUUUAGUCGUACGCCGCAUCCCCAGACGACUCGCCCGA [30NtruNc 38]
Kd (3' fixed sequence removed, plateau 17%): 200 pM

GGGAGGGAAUUUUUGUGUAGACGUAUGCCCUUUGCCCAGACGACUCGCCCGA [30NtruNc 23]
Kd [2]: 930 pM

GGGAGGGGAAUUUUUGGUAAAGCCAUAUGCCUCGCCACAGACGACUCGCCCGA [30NtruNc 27]
Kd (3' fixed sequence removed): > 30000 pM

GGGAGGGGAAUUUUUGGUAAAGCCGUAUGCCUCGCCAGACGACUCGCCCGA [30NtruNc 20]
Kd [6]: 340 pM

GGGAGGGGACAGACGACUCGCCCGAGGGAUUUUACGUUCGUCUCGCGUCUCCCCAGACGACUCGCCCGA [AG7]
binding result (3' fixed sequence removed): no binding

GGGAGGGGAGCAGACGACUCGCCCGAACUGGGAAUUUUUGGUUGAGCCGUAUGCCCAGACGACUCGCCCGA [AG6]
Kd (3' fixed sequence removed, biphasic, plateau 12%, low-affinity Kd 0.2 nM, plateau 25%): 4 pM

GGGAGGGGAGGGAUUCUGCCGAGUUAACGUCGGUGUCUGUAGCUUAUCCCCAGACGACUCGCCCGA [AG2]
Kd [6]: 1000 pM

GGGAGGGGAGGGAUUCUGCCGAGUUAAUUUCGGUGUCUGUAGCUUAUCCCCAGACGACUCGCCCGA [AG11]
Kd [7]: 1000 pM

GGGAGGGGAGGGGUGCCUGUAGUCUUUGCAUCUUAUAAAUGCAAUCUGCCCCAGACGACUCGCCCGA [AG1]
Kd (3' fixed sequence removed, biphasic, plateau 14%, low-affinity Kd 0.5 nM, plateau 25%): 100 pM

GGGAGGGGAGGGGUGCCUUUAGCUUGGUCUGUUUAGUACAUUCCUCUGCCCCAGACGACUCGCCCGA [AG18]
Kd [7]: 1000 pM

GGGAGGGGAGGGUGUUUCGAACUGGGAAUUUUUGGUUUAGCCGUAUGCCCAGACGACUCGCCCGA [AG16]
Kd (3' fixed sequence removed, plateau 23%): 20 pM

GGGAGGGUUAACCGUAAAGACGGCAUUAUGUAGUCCCCAGACGACUCGCCCGA [30NtruNc 36]
Kd (3' fixed sequence removed, plateau 40%): 31000 pM

GGGAGGGUUAACCGUUAAGACGGCGUCAUUUUGUCCCCAGACGACUCGCCCGA [30NtruNc 1]
Kd [8]: 81 pM

GGGAGGGUUAACCGUUAAGACGGCGUUAUUUUGUCCCCAGACGACUCGCCCGA [30NtruNc 24]
Kd [8]: 2500 pM

GGGAGGGUUAACCGUUAAGACGGCUUCAUUUUGUCCCCAGACGACUCGCCCGA [30NtruNc 8]
binding result (3' fixed sequence removed): no binding

GGGAGGGUUAACCGUUAAGACGGCUUUAUUUUGUCCCCAGACGACUCGCCCGA [30NtruNc 13]
Kd [1]: 1400 pM

GGGAGGGUUCUGGAAUUUUUGGUUUAGCCGUACGCCAGACGACUCGCCCGA [30NtruNc 2]
Kd (3' fixed sequence removed, plateau 37%): 1200 pM
